Patent US20210030829A1, “METHODS FOR TREATMENT OF CANCER AND ENHANCEMENT OF NANOPARTICLE ACCUMULATION IN TISSUES” (University of Louisville Research Foundation, Inc., priority 2018, published 2021)
Some of these results come from one statement about several compounds together.

Experiment: Loading efficiency of doxorubicin and paclitaxel on GNVs (UV-Visible spectrophotometry)
Assay type: physicochemical
Conditions: bath-sonication; residual drug in supernatant at 486 / 265 nm

SMILES | Loading efficiency (drug coupled with GNVs)
COc1cccc2c1C(=O)c1c(O)c3c(c(O)c1C2=O)C[C@@](O)(C(=O)CO)C[C@@H]3O[C@H]1C[C@H](N)[C@H](O)[C@H](C)O1 [Dox, doxorubicin] | More than 80%
CC(=O)O[C@H]1C(=O)[C@@]2(C)[C@H]([C@H](OC(=O)c3ccccc3)[C@]3(O)C[C@H](OC(=O)[C@H](O)[C@@H](NC(=O)c4ccccc4)c4ccccc4)C(C)=C1C3(C)C)[C@]1(OC(C)=O)CO[C@@H]1C[C@@H]2O [PTX, paclitaxel] | More than 80%
